Results are given in words; binding and its absence hold for the method and conditions named. For some assays here: Binding seen in cells or lysates may run through a third protein. Some results given as binding are weak or reduced against the parent protein; the word gives no strength. For some assays here: Where a sequence is shown, tags or fusion partners need not be part of it. Values belong to the molecule of their own block, whether it stands above or below them.
Tests used:
GST-ABHD17A (human) = target: T1, GST-ABHD17A (human) (UniProt Q96GS6); assay: pull-down; 20 μg GST or GST-ABHD17A on Glutathione Sepharose beads, 100 μg His-IFITM1 added, 2 h at 4 °C; Coomassie Blue staining; both purified
T1 sequence: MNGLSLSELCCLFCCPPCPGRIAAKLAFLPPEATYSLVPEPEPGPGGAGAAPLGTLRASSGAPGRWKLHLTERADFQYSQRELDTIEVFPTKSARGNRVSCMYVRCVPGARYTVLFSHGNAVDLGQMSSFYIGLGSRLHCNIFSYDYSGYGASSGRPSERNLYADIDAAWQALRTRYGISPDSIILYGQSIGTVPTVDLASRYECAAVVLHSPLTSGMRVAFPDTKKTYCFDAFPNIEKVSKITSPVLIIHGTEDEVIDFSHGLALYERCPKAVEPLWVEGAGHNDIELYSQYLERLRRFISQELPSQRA

Protein sequences, listed by entry. Tags and fused reporters are not part of them.
UniProt P13164: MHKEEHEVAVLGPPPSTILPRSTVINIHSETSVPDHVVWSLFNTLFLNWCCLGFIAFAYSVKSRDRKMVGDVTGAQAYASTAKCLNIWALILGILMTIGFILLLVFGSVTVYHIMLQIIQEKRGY

[1] = target: T2, pGBKT7-ABHD17A (Gal4-binding domain fusion of ABHD17A) (human) (UniProt Q96GS6); assay: two-hybrid; yeast AH109; pGBKT7-ABHD17A (bait) and pGADT7-IFITM1 (prey); SD-TLH and SD-TLHA with X-α-Gal, 30 °C, blue colonies
T2 sequence: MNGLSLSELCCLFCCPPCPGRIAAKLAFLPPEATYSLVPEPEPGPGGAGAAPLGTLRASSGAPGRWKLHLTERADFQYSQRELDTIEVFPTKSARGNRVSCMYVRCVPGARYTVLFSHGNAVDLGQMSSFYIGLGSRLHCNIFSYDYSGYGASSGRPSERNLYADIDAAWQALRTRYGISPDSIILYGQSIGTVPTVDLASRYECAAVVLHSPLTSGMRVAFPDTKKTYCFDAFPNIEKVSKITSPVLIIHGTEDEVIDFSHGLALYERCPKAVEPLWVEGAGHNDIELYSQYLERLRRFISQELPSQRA

IFITM1-VC (human) = IFITM1-VC (human) (UniProt P13164); assay: split reporter; BiFC with Venus halves (VN 1-173, VC 174-239) in living HEK293 cells, 24 h after transfection, confocal microscopy
[2] = target: endogenous IFITM1 (interferon-inducible transmembrane 1) (human (endogenous in HEK293)) (UniProt P13164); assay: co-IP; endogenous proteins in HEK293 lysate; anti-IFITM1 as bait antibody, normal mouse IgG as negative control; Triton X-100 buffer (20 mM Tris pH 7.4, 1% Triton-X100, 150 mM NaCl)
Flag-IFITM1 (human) = Flag-IFITM1 (human) (UniProt P13164); assay: co-IP; transfected HEK293 or A549 cells; anti-Flag on Protein A + G magnetic beads, 4 °C overnight, eluted with 3×Flag peptide; Triton X-100 buffer (20 mM Tris pH 7.4, 1% Triton-X100, 150 mM NaCl); Western blotting

binding (GST-ABHD17A (human)): binds
Molecule: human His-IFITM1 recombinant protein (from UniProt P13164 1-125)

binding [1]: binds
Molecule: pGADT7-IFITM1 (activation domain fusion of IFITM1) (from UniProt P13164 1-125)

The next lines start with the molecule.

B1: ABHD17A-VN (protein, UniProt Q96GS6 1-310)
chain: MNGLSLSELCCLFCCPPCPGRIAAKLAFLPPEATYSLVPEPEPGPGGAGAAPLGTLRASSGAPGRWKLHLTERADFQYSQRELDTIEVFPTKSARGNRVSCMYVRCVPGARYTVLFSHGNAVDLGQMSSFYIGLGSRLHCNIFSYDYSGYGASSGRPSERNLYADIDAAWQALRTRYGISPDSIILYGQSIGTVPTVDLASRYECAAVVLHSPLTSGMRVAFPDTKKTYCFDAFPNIEKVSKITSPVLIIHGTEDEVIDFSHGLALYERCPKAVEPLWVEGAGHNDIELYSQYLERLRRFISQELPSQRA
binding (IFITM1-VC (human)): binds

B2: endogenous ABHD17A (α/β-hydrolase domain-containing 17A) (protein, UniProt Q96GS6 1-310)
chain: MNGLSLSELCCLFCCPPCPGRIAAKLAFLPPEATYSLVPEPEPGPGGAGAAPLGTLRASSGAPGRWKLHLTERADFQYSQRELDTIEVFPTKSARGNRVSCMYVRCVPGARYTVLFSHGNAVDLGQMSSFYIGLGSRLHCNIFSYDYSGYGASSGRPSERNLYADIDAAWQALRTRYGISPDSIILYGQSIGTVPTVDLASRYECAAVVLHSPLTSGMRVAFPDTKKTYCFDAFPNIEKVSKITSPVLIIHGTEDEVIDFSHGLALYERCPKAVEPLWVEGAGHNDIELYSQYLERLRRFISQELPSQRA
binding [2]: binds

B3: ABHD17A-EGFP (protein, UniProt Q96GS6 1-310)
chain: MNGLSLSELCCLFCCPPCPGRIAAKLAFLPPEATYSLVPEPEPGPGGAGAAPLGTLRASSGAPGRWKLHLTERADFQYSQRELDTIEVFPTKSARGNRVSCMYVRCVPGARYTVLFSHGNAVDLGQMSSFYIGLGSRLHCNIFSYDYSGYGASSGRPSERNLYADIDAAWQALRTRYGISPDSIILYGQSIGTVPTVDLASRYECAAVVLHSPLTSGMRVAFPDTKKTYCFDAFPNIEKVSKITSPVLIIHGTEDEVIDFSHGLALYERCPKAVEPLWVEGAGHNDIELYSQYLERLRRFISQELPSQRA
binding (Flag-IFITM1 (human)): binds

From publication PMC12292810
